From patent publication US20020045566A1, “Selective maxi-K potassium channel openers functional under conditions of high intracellular calcium concentration, methods and uses thereof” (priority 2000, published 2002)
At least one structure is not confirmed: it was looked up by name or label, or the drawing left a doubt.

Sequences of proteins named here, by UniProt entry; tags and fusion partners are left off. Residues count along the entry.
UniProt Q12791, 1-1178 isoform Q12791-5: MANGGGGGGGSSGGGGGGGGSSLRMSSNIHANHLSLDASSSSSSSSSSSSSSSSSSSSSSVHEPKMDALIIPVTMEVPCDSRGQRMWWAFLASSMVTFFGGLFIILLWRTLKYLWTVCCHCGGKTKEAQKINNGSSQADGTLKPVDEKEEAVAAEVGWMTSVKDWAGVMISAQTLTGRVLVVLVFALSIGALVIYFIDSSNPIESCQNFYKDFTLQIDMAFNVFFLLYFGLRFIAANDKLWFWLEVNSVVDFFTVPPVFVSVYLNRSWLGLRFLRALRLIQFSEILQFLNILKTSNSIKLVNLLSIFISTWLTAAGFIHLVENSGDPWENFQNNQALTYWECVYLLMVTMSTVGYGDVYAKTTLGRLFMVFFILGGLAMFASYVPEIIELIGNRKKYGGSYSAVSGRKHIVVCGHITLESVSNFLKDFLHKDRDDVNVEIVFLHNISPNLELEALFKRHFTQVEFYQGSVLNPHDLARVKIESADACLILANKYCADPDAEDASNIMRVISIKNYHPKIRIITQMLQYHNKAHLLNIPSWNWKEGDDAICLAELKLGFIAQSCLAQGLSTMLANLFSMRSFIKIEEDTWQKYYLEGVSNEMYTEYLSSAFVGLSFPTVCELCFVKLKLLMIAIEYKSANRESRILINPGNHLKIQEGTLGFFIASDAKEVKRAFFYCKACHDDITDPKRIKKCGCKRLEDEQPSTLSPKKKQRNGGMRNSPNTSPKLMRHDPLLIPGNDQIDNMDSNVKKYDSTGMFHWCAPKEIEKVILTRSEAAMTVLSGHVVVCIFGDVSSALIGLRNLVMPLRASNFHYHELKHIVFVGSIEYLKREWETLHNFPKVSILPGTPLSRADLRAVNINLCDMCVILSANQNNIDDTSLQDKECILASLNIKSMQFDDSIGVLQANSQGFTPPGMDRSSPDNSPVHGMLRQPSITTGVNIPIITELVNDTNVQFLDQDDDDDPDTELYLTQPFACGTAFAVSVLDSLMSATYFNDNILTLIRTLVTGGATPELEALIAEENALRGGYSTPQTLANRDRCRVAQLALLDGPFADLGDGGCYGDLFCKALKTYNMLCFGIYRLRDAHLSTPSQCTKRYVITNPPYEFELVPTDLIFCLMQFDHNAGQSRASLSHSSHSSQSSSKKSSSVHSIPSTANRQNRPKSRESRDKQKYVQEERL
UniProt P13569, whole entry, species assumed: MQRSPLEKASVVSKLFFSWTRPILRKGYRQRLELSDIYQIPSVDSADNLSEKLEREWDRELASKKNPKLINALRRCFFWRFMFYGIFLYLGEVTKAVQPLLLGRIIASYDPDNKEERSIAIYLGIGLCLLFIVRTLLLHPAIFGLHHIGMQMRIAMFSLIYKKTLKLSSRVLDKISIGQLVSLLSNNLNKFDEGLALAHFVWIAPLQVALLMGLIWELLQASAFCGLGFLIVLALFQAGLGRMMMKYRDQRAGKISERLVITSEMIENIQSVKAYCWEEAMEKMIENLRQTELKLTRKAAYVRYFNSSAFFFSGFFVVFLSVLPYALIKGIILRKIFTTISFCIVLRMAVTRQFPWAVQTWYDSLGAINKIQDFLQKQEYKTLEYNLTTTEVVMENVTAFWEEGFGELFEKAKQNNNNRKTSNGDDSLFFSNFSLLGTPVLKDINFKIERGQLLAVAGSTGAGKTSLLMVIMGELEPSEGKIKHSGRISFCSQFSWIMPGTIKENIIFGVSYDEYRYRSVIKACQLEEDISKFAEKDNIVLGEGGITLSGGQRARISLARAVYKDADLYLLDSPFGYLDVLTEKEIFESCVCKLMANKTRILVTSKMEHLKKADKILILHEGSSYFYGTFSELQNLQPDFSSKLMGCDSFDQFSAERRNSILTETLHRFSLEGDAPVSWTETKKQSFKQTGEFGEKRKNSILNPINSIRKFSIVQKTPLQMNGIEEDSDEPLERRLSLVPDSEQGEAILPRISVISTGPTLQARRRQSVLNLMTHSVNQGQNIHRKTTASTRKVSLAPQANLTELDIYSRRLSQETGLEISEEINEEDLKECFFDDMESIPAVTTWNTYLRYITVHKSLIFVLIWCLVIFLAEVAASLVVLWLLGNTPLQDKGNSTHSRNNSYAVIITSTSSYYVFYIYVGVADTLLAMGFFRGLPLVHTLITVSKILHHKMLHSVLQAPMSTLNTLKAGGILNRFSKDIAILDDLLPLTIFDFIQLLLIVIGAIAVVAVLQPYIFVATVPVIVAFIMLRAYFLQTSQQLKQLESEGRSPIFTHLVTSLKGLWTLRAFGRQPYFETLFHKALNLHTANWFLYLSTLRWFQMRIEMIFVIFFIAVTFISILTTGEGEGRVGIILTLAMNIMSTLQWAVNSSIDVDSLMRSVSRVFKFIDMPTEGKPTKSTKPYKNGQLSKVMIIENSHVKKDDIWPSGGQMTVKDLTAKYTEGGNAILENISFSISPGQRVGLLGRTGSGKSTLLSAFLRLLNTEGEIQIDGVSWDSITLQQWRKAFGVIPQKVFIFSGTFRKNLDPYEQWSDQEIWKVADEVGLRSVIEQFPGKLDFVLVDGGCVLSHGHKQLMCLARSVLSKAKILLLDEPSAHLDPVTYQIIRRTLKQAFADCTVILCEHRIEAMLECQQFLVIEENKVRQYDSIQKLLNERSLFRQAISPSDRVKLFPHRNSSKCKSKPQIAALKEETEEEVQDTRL
UniProt P35462, whole entry: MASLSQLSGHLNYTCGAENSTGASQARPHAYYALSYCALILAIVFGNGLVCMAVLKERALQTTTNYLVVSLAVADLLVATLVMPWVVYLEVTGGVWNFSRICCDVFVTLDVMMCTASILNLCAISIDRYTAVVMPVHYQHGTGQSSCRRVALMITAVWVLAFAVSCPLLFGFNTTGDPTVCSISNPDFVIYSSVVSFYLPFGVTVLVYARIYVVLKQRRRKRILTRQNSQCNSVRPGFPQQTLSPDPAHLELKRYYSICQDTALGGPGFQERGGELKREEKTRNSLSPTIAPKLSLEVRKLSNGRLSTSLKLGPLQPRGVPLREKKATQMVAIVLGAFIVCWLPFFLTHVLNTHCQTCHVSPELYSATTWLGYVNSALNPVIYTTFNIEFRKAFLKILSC

How the values were obtained:
maxi-K channels = target: T1, maxi-K channels (Homo sapiens, UniProt Q12791); assay: cell-attached patch-clamp recording with low endogenous intracellular Ca2+; format: cell-based
T1 construct: expressed in transfected cells

hSlo1 = target: T2, hSlo1 (Homo sapiens, UniProt Q12791); assay: maxi-K current in Xenopus oocytes expressing hSlo1; format: cell-based; conditions: endogenous low [Ca2+]i
T2 construct: expressed in transfected cells; host or cells: Xenopus oocytes (cRNA injection as described generally)

[1] = target: T3, cystic fibrosis transmembrane conductance regulator Cl^− channel (CFTR) (Homo sapiens, UniProt P13569); assay: ion channel specificity, CFTR activation; format: cell-based; conditions: compared with cAMP and the CFTR opener NS004
T3 construct: expressed in transfected cells

dopamine D3 receptor = target: T4, dopamine D3 receptor (Homo sapiens, UniProt P35462); assay: [3H]spiperone binding, PanLabs screen; conditions: subsequent retest
T4 construct: PanLabs (contract screen)
Text: BMS-204352 was also examined against a binding screen of over 50 receptors and enzyme systems (PanLabs ProfilingScreen® and DiscoveryScreen®). These systems include representatives of most G-protein coupled receptor families, ligand-gated ion channel families, as well as some voltage-gated ion channel binding sites such as the dihydropyridine receptor of L-type Ca^2+ channels. […] The significance of modest inhibition of σ1 ligand binding is unknown.

Question: Which results are given for `COc1ccc(Cl)cc1[C@]1(F)C(=O)Nc2cc(C(F)(F)F)ccc21` [BMS-204352, (3S)-(+)-(5-Chloro-2-methoxyphenyl)-1,3-dihydro-3-fluoro-6-(trifluoromethyl)-2H-indol-2-one]?
Answer: effects in cell-attached patch configuration (maxi-K channels): relatively modest; effects on maxi-K current in Xenopus oocytes (hSlo1): modest and inconsistent effects; activation of CFTR [1]: did not activate; interaction with human dopamine D3 receptor (dopamine D3 receptor): no significant interaction
